Results taken from the supplement of paper PMC10849652.
The other results are listed elsewhere or left out.

By UniProt entry, the sequences of proteins in these tests, tags left out. Where a name states a change or a piece, a line headed by the entry shows the natural chain unless it says otherwise.
UniProt Q9NR45: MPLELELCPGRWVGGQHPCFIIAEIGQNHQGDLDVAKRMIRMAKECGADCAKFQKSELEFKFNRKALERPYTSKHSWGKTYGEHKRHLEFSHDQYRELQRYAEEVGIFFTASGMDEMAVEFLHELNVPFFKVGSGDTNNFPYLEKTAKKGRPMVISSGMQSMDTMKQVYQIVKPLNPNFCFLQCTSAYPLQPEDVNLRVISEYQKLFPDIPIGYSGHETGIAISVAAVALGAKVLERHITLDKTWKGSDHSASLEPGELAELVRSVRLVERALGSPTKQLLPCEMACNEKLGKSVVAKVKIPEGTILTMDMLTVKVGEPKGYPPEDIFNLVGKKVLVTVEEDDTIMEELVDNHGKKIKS
UniProt Q9UK23: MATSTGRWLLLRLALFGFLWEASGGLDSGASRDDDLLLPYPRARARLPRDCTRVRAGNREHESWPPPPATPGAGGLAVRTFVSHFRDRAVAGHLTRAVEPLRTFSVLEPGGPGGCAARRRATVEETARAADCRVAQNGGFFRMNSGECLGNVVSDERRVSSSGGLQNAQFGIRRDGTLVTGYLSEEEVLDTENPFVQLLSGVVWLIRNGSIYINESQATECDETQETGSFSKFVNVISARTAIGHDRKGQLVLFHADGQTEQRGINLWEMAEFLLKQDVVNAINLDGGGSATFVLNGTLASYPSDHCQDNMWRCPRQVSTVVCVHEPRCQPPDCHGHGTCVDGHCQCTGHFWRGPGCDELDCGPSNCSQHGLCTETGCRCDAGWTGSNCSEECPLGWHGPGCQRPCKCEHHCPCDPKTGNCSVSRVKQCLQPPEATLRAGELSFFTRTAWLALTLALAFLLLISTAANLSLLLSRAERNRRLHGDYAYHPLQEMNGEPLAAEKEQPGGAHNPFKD
UniProt O95169, whole entry, looked up: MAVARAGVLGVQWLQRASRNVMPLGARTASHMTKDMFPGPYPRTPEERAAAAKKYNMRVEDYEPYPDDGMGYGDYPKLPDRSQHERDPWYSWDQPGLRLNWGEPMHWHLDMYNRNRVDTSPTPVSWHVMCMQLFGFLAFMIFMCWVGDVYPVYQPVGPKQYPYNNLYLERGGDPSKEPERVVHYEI
UniProt Q92692, whole entry, looked up: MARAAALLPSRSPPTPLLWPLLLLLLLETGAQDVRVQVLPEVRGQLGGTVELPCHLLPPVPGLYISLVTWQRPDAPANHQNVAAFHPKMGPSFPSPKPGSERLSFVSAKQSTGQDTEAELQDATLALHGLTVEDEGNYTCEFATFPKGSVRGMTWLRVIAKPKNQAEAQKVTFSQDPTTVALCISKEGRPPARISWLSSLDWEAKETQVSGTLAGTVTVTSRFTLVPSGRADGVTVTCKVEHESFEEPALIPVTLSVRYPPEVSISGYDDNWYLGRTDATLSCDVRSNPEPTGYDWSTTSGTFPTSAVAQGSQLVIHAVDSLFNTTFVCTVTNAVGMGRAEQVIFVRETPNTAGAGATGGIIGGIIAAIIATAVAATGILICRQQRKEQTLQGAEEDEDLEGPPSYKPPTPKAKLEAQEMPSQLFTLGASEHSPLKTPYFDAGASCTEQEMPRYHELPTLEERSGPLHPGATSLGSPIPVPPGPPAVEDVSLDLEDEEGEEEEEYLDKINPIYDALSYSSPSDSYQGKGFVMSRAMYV
UniProt Q15788: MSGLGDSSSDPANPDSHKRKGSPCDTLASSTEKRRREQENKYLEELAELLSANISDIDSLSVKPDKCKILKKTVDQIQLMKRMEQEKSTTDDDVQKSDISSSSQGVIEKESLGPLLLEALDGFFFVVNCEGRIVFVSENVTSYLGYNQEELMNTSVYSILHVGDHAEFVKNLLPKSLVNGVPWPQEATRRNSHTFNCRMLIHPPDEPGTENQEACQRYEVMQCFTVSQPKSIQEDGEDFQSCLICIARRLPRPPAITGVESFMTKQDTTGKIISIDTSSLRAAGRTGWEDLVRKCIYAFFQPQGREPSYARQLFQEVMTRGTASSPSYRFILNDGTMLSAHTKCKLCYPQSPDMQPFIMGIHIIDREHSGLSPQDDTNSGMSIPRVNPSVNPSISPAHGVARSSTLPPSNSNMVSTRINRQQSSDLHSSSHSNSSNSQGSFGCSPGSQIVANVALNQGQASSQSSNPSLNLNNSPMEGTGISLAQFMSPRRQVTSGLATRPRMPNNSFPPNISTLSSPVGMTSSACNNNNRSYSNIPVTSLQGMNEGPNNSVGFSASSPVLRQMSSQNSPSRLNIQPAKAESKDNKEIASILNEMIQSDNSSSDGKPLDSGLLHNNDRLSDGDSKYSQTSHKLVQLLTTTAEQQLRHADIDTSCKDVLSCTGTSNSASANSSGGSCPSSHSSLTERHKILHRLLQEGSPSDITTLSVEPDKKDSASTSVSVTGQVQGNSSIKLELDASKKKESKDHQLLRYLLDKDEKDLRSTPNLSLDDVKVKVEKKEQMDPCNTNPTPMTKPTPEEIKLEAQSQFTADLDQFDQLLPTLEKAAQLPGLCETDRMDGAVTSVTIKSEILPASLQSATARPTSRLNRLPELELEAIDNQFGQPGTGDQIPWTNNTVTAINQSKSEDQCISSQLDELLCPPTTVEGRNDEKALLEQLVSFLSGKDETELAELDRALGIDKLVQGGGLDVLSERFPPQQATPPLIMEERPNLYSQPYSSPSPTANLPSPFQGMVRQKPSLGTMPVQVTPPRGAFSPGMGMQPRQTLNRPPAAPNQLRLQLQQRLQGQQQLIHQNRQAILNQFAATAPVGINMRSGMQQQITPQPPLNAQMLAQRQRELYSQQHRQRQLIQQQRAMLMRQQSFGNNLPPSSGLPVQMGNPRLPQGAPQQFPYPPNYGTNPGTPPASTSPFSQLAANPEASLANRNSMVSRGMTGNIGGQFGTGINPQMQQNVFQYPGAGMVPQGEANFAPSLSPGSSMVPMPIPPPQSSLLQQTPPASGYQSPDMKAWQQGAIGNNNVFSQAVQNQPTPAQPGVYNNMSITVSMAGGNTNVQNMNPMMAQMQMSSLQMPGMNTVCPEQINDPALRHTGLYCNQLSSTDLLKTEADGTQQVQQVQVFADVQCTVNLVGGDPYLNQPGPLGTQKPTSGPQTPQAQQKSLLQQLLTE
UniProt Q15021, whole entry, looked up: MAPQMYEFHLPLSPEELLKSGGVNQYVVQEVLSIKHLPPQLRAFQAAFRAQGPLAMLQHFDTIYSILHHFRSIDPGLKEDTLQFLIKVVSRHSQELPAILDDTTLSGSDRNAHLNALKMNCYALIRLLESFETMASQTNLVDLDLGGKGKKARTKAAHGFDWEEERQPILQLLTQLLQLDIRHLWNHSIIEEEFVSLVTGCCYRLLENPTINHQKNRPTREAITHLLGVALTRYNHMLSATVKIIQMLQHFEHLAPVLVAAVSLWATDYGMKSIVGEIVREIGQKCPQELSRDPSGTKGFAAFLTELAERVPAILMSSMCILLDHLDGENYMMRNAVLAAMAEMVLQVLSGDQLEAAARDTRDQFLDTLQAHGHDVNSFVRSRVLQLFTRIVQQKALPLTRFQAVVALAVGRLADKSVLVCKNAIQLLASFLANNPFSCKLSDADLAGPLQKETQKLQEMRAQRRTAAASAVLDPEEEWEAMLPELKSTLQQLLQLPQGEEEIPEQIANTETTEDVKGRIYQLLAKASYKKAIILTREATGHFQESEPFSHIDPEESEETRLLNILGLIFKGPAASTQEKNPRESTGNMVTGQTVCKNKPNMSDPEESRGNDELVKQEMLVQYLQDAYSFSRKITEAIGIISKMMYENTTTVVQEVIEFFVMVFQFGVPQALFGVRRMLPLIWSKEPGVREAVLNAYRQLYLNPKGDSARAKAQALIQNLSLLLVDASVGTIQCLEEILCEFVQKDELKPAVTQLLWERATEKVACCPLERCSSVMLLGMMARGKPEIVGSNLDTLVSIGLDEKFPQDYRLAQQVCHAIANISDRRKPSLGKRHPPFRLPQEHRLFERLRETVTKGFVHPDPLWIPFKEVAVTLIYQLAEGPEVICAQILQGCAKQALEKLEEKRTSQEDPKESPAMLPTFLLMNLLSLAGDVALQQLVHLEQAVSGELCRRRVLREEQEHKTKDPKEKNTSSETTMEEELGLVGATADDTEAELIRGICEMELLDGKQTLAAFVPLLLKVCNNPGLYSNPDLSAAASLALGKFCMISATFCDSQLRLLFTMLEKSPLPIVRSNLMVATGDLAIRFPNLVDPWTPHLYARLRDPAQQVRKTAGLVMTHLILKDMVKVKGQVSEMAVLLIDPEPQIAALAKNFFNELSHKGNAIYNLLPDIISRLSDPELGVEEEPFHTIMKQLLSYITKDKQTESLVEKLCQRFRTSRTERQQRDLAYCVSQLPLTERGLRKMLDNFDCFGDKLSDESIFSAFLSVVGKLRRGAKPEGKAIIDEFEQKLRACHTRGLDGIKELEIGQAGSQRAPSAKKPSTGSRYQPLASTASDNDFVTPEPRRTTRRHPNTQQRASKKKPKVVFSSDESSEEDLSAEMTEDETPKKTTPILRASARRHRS
UniProt Q8NI08: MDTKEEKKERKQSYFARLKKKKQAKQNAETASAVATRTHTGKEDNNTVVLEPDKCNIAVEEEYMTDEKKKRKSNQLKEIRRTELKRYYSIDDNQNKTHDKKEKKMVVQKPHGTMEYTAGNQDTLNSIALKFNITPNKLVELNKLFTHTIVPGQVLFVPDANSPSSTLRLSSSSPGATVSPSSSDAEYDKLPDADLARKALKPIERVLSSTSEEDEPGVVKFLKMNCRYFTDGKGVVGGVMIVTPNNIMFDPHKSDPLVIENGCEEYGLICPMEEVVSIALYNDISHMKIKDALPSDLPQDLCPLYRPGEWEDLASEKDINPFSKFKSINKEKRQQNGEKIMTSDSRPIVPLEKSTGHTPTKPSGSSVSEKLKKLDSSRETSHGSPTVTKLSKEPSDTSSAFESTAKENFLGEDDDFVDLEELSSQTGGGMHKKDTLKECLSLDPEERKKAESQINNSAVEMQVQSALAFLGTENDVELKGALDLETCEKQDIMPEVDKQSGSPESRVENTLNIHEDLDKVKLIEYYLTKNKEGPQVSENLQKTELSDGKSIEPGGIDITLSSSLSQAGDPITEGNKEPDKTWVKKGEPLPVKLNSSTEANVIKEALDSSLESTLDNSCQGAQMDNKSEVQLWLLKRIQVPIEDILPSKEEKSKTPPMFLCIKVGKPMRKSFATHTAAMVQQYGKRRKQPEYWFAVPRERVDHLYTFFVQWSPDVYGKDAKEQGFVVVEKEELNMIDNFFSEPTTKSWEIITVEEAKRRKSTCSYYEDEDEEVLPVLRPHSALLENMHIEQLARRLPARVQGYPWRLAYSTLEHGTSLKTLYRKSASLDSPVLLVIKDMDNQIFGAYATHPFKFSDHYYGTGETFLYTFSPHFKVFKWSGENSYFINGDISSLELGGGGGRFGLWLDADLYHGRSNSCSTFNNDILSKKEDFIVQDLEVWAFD

Experiments:
Test in all cases: log2 fold change, soluble protein after heating vs DMSO (PISA); higher = thermal stabilisation; K562 cells, 10 uM, 30 min; active = over 0.2 and 3.5 SD of the protein, either way, in both replicates (recomputed)
saracatinib = compound: CN1CCN(CCOc2cc(OC3CCOCC3)c3c(Nc4c(Cl)ccc5c4OCO5)ncnc3c2)CC1 [saracatinib]
In short: (§1)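 Soluble protein was defined as the supernatant after 21,000xg for 90 min. It came from K562 cells at 2×10^6 cells/mL given 10 μM compound for 30 min, heated in aliquots for 3 min across 48°C-58°C, pooled, and extracted in PBS with 0.5% NP-40 at 4°C, and was quantified by TMTpro 16plex LC-MS/MS with equalised channel sums. Thermal stability against control samples, from duplicates, is reported as log2 fold change.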

sotrastaurin = compound: CN1CCN(c2nc(C3=C(c4c[nH]c5ccccc45)C(=O)NC3=O)c3ccccc3n2)CC1 [sotrastaurin]
In short: as §1

Tubastatin A = compound: CN1CCc2c(c3ccccc3n2Cc2ccc(C(=O)NO)cc2)C1 [Tubastatin A]
In short: as §1

[1] = compound: CNC(=O)C1=CC=CC=C1NC2=NC(=NC=C2Cl)NC3=C(C=C(C=C3)N4CCOCC4)OC
In short: as §1

defactinib = compound: CNC(=O)c1ccc(Nc2ncc(C(F)(F)F)c(NCc3nccnc3N(C)S(C)(=O)=O)n2)cc1 [defactinib]
In short: as §1

rucaparib = compound: CNCc1ccc(-c2[nH]c3cc(F)cc4c3c2CCNC4=O)cc1 [rucaparib]
In short: as §1

[2] = compound: CNc1nc(-c2ccc3c(N)n[nH]c3c2)cc(N2C[C@@H](C(=O)NC3CCCCC3)CC[C@H]2C)n1
In short: as §1

encorafenib = compound: COC(=O)N[C@@H](C)CNc1nccc(-c2cn(C(C)C)nc2-c2cc(Cl)cc(NS(C)(=O)=O)c2F)n1 [encorafenib]
In short: as §1

[3] = compound: COC(=O)[C@H](CCSC)NC(=O)C1=C(C=C(C=C1)NC[C@H](CS)N)C2=CC=CC=C2
In short: as §1

[4] = compound: COC1=CC=C(C=C1)CN2C=CC3=C2C=C(C=C3)C(=O)NO
In short: as §1

filanesib = compound: CON(C)C(=O)N1N=C(c2cc(F)ccc2F)S[C@@]1(CCCN)c1ccccc1 [filanesib]
In short: as §1

zotarolimus = compound: CO[C@H]1C[C@@H]2CC[C@@H](C)[C@@](O)(O2)C(=O)C(=O)N2CCCC[C@H]2C(=O)O[C@H]([C@H](C)C[C@@H]2CC[C@H](n3cnnn3)[C@H](OC)C2)CC(=O)[C@H](C)/C=C(\C)[C@@H](O)[C@@H](OC)C(=O)[C@H](C)C[C@H](C)/C=C/C=C/C=C/1C [zotarolimus]
In short: as §1

idasanutlin = compound: COc1cc(C(=O)O)ccc1NC(=O)[C@@H]1N[C@@H](CC(C)(C)C)[C@](C#N)(c2ccc(Cl)cc2F)[C@H]1c1cccc(Cl)c1F [idasanutlin]
In short: as §1

alisertib = compound: COc1cc(Nc2ncc3c(n2)-c2ccc(Cl)cc2C(c2c(F)cccc2OC)=NC3)ccc1C(=O)O [alisertib]
In short: as §1

[5] = compound: COc1cc2nc(-c3cc(F)ccc3O)nc(N[C@@H]3CNC[C@H]3C(C)(C)O)c2cc1OC
In short: as §1

gefitinib = compound: COc1cc2ncnc(Nc3ccc(F)c(Cl)c3)c2cc1OCCCN1CCOCC1 [gefitinib]
In short: as §1

[6] = compound: COc1cccc2cc(-c3nc([C@H]4CC[C@H](C(=O)O)CC4)n4ncnc(N)c34)[nH]c12
In short: as §1

lapatinib = compound: CS(=O)(=O)CCNCc1ccc(-c2ccc3ncnc(Nc4ccc(OCc5cccc(F)c5)c(Cl)c4)c3c2)o1 [lapatinib]
In short: as §1

pictilisib = compound: CS(=O)(=O)N1CCN(Cc2cc3nc(-c4cccc5[nH]ncc45)nc(N4CCOCC4)c3s2)CC1 [pictilisib]
In short: as §1

alvocidib = compound: CN1CC[C@H](c2c(O)cc(O)c3c(=O)cc(-c4ccccc4Cl)oc23)[C@H](O)C1 [alvocidib]
In short: as §1

Measured: log2 fold change

NANS (UniProt Q9NR45)
inactive: saracatinib 0.022 | sotrastaurin -0.058 | Tubastatin A -0.026 | [1] 0.034 | defactinib -0.033 | rucaparib -0.084 | [2] 0.051 | encorafenib 0.004 | [3] -0.015 | [4] -0.11 | filanesib -0.115 | zotarolimus 0.017 | idasanutlin -0.045 | alisertib -0.008 | [5] -0.017 | gefitinib -0.057 | [6] -0.017 | lapatinib -0.005 | pictilisib -0.018

NAGPA (UniProt Q9UK23)
inactive: saracatinib -0.009 | sotrastaurin -0.017 | Tubastatin A 0.068 | [1] 0.022 | rucaparib -0.132 | [2] -0.049 | encorafenib 0.014 | [4] -0.025 | filanesib -0.046 | zotarolimus -0.099 | idasanutlin 0.054 | alisertib -0.069 | [5] -0.044 | gefitinib 0.001 | [6] 0.248 | lapatinib 0.139 | pictilisib 0.134

NDUFB8 (UniProt O95169)
inactive: saracatinib -0.064 | sotrastaurin 0.071 | Tubastatin A -0.016 | [1] 0.002 | defactinib -0.037 | rucaparib 0.003 | [2] -0.073 | encorafenib 0.016 | [3] -0.048 | [4] -0.042 | filanesib 0.004 | zotarolimus -0.005 | idasanutlin 0.069 | alisertib -0.04 | [5] -0.141 | gefitinib -0.023 | [6] 0.06 | lapatinib -0.036 | pictilisib -0.034

NECTIN2 (UniProt Q92692)
inactive: saracatinib 0.021 | sotrastaurin 0.047 | Tubastatin A -0.013 | [1] -0.056 | defactinib -0.013 | rucaparib -0.051 | [2] 0.049 | encorafenib -0.024 | [3] 0.063 | [4] -0.028 | filanesib 0.027 | zotarolimus -0.042 | idasanutlin -0.003 | alisertib -0.084 | [5] 0.011 | gefitinib 0.06 | [6] 0.014 | lapatinib -0.01 | pictilisib 0.021

NCOA1 (UniProt Q15788)
inactive: saracatinib 0.11 | alvocidib -0.095 | Tubastatin A -0.023 | [1] -0.019 | defactinib 0 | rucaparib -0.093 | [2] 0.062 | encorafenib -0.152 | [3] 0.096 | zotarolimus 0.142 | idasanutlin 0.065 | alisertib 0.047 | gefitinib 0.033 | [6] 0.024

NCAPD2 (UniProt Q15021)
inactive: saracatinib -0.052 | sotrastaurin -0.145 | Tubastatin A 0.012 | [1] 0.111 | defactinib -0.052 | rucaparib 0.142 | [2] 0.008 | encorafenib 0.11 | [3] -0.025 | [4] 0.025 | filanesib -0.006 | zotarolimus 0.061 | idasanutlin -0.072 | alisertib -0.005 | [5] 0.092 | gefitinib 0.029 | [6] -0.138 | lapatinib -0.024 | pictilisib 0.059

NCOA7 (UniProt Q8NI08)
inactive: saracatinib -0.05 | sotrastaurin -0.074 | Tubastatin A -0.02 | [1] -0.011 | defactinib -0.099 | rucaparib -0.029 | [2] -0.064 | encorafenib 0.019 | [3] 0.039 | [4] -0.043 | filanesib -0.046 | zotarolimus 0.035 | idasanutlin -0.034 | alisertib -0.034 | [5] 0.043 | gefitinib -0.014 | [6] 0.014 | lapatinib 0.01 | pictilisib -0.045
